Experimental data: PubChem BioAssay (EPA / NIEHS)
Where “and” joins values, the source holds several entries; their conditions need not be identical. Equal entries are not always repeated. The shares of active, inactive and inconclusive entries below differ from those in the screen. Where the call is inconclusive, the potency comes from a doubtful curve fit. Calls of active or inactive are those of the source. How the source made its calls: active means hit-call score of the fitted dose curve at least 0.9, where 1 is the maximum; inconclusive means response in the unintended direction; inactive means score below 0.9.

Protein sequences, listed by entry. Tags and fused reporters are not part of them.
UniProt P55055, whole entry, looked up: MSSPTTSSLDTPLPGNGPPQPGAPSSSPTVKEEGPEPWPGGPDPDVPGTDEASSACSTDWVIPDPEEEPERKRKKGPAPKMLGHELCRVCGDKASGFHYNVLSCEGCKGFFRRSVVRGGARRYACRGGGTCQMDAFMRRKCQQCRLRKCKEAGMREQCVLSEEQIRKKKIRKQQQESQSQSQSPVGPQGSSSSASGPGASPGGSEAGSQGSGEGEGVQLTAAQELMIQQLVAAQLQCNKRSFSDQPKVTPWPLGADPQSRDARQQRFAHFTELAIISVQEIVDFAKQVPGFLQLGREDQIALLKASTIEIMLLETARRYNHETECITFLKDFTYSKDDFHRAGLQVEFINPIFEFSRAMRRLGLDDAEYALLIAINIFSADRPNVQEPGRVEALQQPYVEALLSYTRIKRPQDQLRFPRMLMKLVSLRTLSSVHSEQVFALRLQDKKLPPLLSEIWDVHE

target: Oxysterols receptor LXR-beta (Homo sapiens) (UniProt P55055); assay: ATG_LXRb_TRANS: Attagene TRANS-FACTORIAL HepG2 Assay for human Liver X Receptor beta (LXRb) (AID 2282981); details: HepG2 Attagene TRANS GAL4-LXRb reporter, mRNA
Description: ATG_TRANS is a cell-based, multiplexed-readout assay that uses HepG2, a human liver cell line, with measurements taken at 24 hours after chemical dosing in a 24-well plate.ATG_LXRb_TRANS is one of 30 assay component(s) measured or calculated from the ATG_TRANS assay. It is designed to make measurements of mRNA induction, a form of inducible reporter, as detected with fluorescence intensity signals by Reverse transcription polymerase chain reaction (RT-PCR) and Capillary electrophoresis technology.Data from the assay component ATG_LXRb_TRANS was analyzed into 1 assay endpoint. This assay endpoint, ATG_LXRb_TRANS, was analyzed in the positive analysis fitting direction relative to DMSO as the negative control and baseline of activity. Using a type of inducible reporter, measures of mRNA for gain-of-signal activity can be used to understand the reporter gene at the transcription factor-level as they relate to the gene NR1H2. Furthermore, this assay endpoint can be referred to as a primary readout, because this assay has produced multiple assay endpoints where this one serves a reporter gene function. To generalize the intended target to other relatable targets, this assay endpoint is annotated to the nuclear receptor intended target family, where the subfamily is non-steroidal.
Human liver HepG2 cells are transiently transfected with multiple reporter transcription units (MRTUs) in 6-well plates using FuGene 6 reagent (Roche; 3 ml FuGene/1 mg DNA). The MRTU constructs are regulated by a cis-regulating element (promoter). […] A major difference between the CIS and TRANS system is that in CIS activities of endogenous TFs are measured, whereas the TRANS assay evaluates changes in activities of exogenous, chimeric NR-Gal4 proteins. […] At the end of 24 hour incubation, total RNA was isolated using TriZol reagent (Invitrogen). The isolated RNA is then reverse-transcribed using oligo(dT) primer and Mo-MLV reverse transcriptase (Invitrogen) with DNAse I (Ambion) treatment for 30 min. The one-tenth of the produced cDNA was amplified by PCR using Taq DNA polymerase (Invitrogen) and two reporter sequence-specific primers. The PCR products were fluorescently labeled by primer extension with 6-arboxyfluorescein (6-FAM) 5'-labeled reporter sequence-specific primer (2 min at 95 C, 20 s at 68 C and 10 min at 72 C) and these products were digested with 5U of HpaI (New England Biolabs) for 2h at 37 C. The fragments were purified using Qiaquick PCR columns (Qiagen), analyzed on an ABI 3130xL genetic analyzer (Applied Biosystems) with peak positions identified by using a set of X-rhodamine (ROX)-labeled MapMarker1000 molecular weight standards (BioVentures). The raw capillary electrophoresis data was processed using Attagraph software (Attagene).

| Compound | AC50 | outcome |
| --- | --- | --- |
| Cc1ccc(C(=O)c2ccccc2)cc1 | inconclusive: 100 µM |  |
| C=C1[C@H]2CC[C@@H]3[C@H]2C(C)(C)CCC[C@]13C | inconclusive: 2.75 µM |  |
| Cc1ccc(O)c(-n2nc3ccccc3n2)c1 |  | inactive |
| CC(C)c1ccc(C#N)cc1 | inconclusive: 100 µM |  |
| CC(=O)OCC(C)OC(C)=O (stereo not given) |  | inactive |
| CCN(CCC#N)c1ccccc1 | inconclusive: 100 µM |  |
| COCN(COC)c1nc(N(COC)COC)nc(N(COC)COC)n1 |  | inactive |
| CC(C)=CCCC(C)=CC#N | inconclusive: 6.28 µM |  |
| CC(C)=NNC(N)=S | inconclusive: 100 µM |  |
| COC(OC(C)=O)c1ccccc1 (stereo not given) | inconclusive: 5.07 µM |  |
| O=C1c2ccc(O)c(O)c2C(=O)c2c(O)ccc(O)c21 |  | inactive |
| Cc1cc(Cc2cc(C)cc(C(C)(C)C)c2O)c(O)c(C(C)(C)C)c1 |  | inactive |

Fetched one by one from the entries so far (2):

| Compound | AC50 | outcome |
| --- | --- | --- |
| Cc1cc(Cc2cc(C)cc(C(C)(C)C)c2O)c(O)c(C(C)(C)C)c1 |  | inactive |
| CC(C)=CCCC(C)=CC#N | inconclusive: 6.28 µM |  |

Next compounds follow:

| Compound | AC50 | outcome |
| --- | --- | --- |
| Nc1ccn([C@@H]2O[C@H](CO)[C@@H](O)C2O)c(=O)n1 (stereo not given in full) |  | inactive |
| CC1OC(=O)C(C)OC1=O (stereo not given) | inconclusive: 100 µM |  |
| O=S(=O)(OCC(F)F)C(F)(F)F | inconclusive: 150 µM | inactive |
| O=C1OC(=O)c2ccc3c4c(ccc1c24)C(=O)OC3=O | inconclusive: 1.52 µM |  |
| OC1CCCC1 |  | inactive |
| NC(=O)c1ccccc1O |  | inactive |
| COC(=O)c1ccccc1O | active: 25.5 µM |  |
| CC(=O)CCC1=C(C)CCCC1(C)C |  | inactive |
| CCN(CCC#N)c1ccc(N=Nc2c(Cl)cc([N+](=O)[O-])cc2Cl)cc1 |  | inactive |
| CC1=CCC2C(=O)OC(=O)C2C1 (stereo not given) | inconclusive: 100 µM |  |
| CC1=CC2C3C=CC(C3)C2C1C (stereo not given) | inconclusive: 100 µM |  |
| CC=CC(=O)OCC(C)C | inconclusive: 100 µM |  |
| CCCCOC(=O)C(C)Oc1ccc(Oc2ccc(C(F)(F)F)cn2)cc1 (stereo not given) |  | inactive |
| O=C1CCCCCCCCCCC(=O)OCCO1 | inconclusive: 100 µM |  |
| C=CC(C)(CCC=C(C)C)OC=O (stereo not given) |  | inactive |
| CC(C)(N)CO |  | inactive |
| CC(CCC(=O)O)(c1ccc(O)cc1)c1ccc(O)cc1 |  | inactive |
